Reference: US20180237497A1
Results are given in words; binding and its absence hold for the method and conditions named. Some binding calls cover weakened binding; strength is not graded here.

The chains behind the UniProt entries cited, without tags or fusion partners. Where a name states a change or a piece, a line headed by the entry shows the natural chain unless it says otherwise. Residues count along the entry.
UniProt P01344, residues 25-180: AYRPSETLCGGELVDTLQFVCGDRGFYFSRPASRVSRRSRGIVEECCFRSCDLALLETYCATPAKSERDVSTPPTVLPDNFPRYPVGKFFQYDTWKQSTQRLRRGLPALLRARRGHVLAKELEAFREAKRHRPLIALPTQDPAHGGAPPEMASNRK
UniProt P11717: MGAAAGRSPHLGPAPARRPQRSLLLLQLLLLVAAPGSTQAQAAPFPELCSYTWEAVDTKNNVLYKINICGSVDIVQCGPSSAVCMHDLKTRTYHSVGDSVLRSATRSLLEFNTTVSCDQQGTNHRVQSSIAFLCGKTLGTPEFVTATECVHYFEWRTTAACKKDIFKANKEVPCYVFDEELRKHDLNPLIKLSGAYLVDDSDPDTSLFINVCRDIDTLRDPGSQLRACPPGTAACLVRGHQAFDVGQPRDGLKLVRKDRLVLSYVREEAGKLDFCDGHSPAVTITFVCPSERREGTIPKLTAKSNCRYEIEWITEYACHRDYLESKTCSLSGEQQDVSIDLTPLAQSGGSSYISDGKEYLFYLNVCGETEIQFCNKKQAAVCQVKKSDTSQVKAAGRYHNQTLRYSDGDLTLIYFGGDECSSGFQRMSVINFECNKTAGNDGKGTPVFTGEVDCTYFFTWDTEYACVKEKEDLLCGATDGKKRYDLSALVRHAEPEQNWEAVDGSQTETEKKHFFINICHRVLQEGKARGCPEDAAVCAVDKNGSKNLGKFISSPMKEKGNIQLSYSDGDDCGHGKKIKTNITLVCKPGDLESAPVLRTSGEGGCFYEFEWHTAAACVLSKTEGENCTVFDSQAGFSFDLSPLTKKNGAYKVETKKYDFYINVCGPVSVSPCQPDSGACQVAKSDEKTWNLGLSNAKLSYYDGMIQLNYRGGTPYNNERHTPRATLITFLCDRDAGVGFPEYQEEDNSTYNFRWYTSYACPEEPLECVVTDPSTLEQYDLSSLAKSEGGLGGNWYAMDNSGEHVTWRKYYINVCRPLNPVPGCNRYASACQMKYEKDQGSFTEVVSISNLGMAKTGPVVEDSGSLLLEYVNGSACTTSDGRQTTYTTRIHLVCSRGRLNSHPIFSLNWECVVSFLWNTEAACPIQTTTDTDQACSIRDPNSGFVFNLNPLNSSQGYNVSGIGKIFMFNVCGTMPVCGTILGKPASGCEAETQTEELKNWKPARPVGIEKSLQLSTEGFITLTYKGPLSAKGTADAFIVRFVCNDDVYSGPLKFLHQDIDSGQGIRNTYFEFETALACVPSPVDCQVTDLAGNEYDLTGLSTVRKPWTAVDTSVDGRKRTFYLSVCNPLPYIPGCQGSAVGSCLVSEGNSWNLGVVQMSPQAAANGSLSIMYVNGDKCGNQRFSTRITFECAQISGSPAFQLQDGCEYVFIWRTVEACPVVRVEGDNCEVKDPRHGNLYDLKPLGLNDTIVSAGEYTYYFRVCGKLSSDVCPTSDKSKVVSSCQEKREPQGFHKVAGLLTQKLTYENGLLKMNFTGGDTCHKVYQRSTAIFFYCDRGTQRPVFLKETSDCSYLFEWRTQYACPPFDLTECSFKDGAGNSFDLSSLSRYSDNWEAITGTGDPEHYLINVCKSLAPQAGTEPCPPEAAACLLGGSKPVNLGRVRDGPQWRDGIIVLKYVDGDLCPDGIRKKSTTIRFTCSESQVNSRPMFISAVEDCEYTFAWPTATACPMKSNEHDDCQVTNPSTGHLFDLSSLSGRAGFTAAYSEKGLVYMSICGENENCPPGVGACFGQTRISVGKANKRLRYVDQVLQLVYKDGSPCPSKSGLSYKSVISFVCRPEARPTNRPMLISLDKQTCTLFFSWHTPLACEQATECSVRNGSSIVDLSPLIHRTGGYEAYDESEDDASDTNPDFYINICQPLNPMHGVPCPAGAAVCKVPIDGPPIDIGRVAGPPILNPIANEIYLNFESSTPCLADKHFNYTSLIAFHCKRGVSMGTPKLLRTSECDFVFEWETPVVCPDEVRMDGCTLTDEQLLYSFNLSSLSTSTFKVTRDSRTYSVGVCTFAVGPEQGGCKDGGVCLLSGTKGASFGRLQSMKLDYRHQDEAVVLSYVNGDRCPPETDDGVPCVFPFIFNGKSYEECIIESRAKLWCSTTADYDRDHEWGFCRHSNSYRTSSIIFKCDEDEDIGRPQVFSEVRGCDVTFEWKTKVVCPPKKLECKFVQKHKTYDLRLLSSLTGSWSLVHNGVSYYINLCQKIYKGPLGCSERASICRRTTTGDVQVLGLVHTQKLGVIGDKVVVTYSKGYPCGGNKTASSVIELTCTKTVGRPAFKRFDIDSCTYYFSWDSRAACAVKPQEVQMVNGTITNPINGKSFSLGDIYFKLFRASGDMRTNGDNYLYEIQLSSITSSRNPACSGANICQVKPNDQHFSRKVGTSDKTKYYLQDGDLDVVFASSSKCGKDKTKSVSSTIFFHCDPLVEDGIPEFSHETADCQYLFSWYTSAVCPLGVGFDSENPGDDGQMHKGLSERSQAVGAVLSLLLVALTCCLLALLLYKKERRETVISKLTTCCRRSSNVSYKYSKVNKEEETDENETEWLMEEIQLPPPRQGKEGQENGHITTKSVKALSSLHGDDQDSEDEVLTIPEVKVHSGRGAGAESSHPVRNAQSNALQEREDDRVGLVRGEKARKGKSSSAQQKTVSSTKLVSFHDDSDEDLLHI

Biological target: pro-IGF2^1-156 (UniProt P01344)
Assay: SPR, antibody capture

binding: binds
Substance: Fc-domain 11^I1572A fusion protein (from UniProt P11717 1511-1650) (Fc fusion)
